# Earlier results in US20030190360A1, “Chronotherapeutic dosage forms containing glucocorticosteroid and methods of treatment” (priority 2001, published 2003).
# At least one compound was matched to its structure with a doubt left.
# Settings: equivalent doses of glucocorticoids
row,SMILES,Approximate Equivalent Dose
1,C[C@@H]1C[C@H]2[C@@H]3CCC4=CC(=O)C=C[C@]4(C)[C@@]3(F)[C@@H](O)C[C@]2(C)[C@@]1(O)C(=O)CO [Dexamethasone],0.75 mg
2,C[C@H]1C[C@@H]2[C@H]([C@@H](O)C[C@@]3(C)[C@H]2CC[C@]3(O)C(=O)CO)[C@@]2(C)C=CC(=O)C=C12 [Methylprednisolone],4 mg
3,C[C@H]1C[C@H]2[C@@H]3CCC4=CC(=O)C=C[C@]4(C)[C@@]3(F)[C@@H](O)C[C@]2(C)[C@@]1(O)C(=O)CO [Betamethasone],0.6 to 0.75 mg
